Experimental data: the supplement of paper PMC12819154, “High-throughput peptide-centric local stability assay extends protein–ligand identification to membrane proteins, tissues and bacteria” (Nature Structural & Molecular Biology, 2025)
The other results are listed elsewhere or left out. Small differences around the control level are noise.

Amino acid sequences for entries named in this document (tags omitted). A change or cut given only in a name is not applied to a line headed by its entry.
UniProt Q96GS4: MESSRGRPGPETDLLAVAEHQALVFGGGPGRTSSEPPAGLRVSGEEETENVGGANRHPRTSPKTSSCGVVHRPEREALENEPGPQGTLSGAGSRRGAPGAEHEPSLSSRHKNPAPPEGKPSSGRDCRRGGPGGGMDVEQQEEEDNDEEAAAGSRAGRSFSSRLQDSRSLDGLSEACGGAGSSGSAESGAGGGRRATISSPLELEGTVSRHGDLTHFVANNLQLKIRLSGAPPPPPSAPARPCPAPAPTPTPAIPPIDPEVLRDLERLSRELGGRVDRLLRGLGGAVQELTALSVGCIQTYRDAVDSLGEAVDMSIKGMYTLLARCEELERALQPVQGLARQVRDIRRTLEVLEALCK
UniProt Q96HS1, whole entry: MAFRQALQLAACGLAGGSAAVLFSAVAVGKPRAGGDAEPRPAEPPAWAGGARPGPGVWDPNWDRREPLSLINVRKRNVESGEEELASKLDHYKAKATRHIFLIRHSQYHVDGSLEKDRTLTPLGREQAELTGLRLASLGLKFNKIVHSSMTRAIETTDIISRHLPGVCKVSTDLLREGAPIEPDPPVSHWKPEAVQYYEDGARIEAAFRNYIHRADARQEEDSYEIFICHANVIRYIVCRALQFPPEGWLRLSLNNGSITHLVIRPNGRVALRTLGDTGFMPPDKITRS
UniProt Q96NC0: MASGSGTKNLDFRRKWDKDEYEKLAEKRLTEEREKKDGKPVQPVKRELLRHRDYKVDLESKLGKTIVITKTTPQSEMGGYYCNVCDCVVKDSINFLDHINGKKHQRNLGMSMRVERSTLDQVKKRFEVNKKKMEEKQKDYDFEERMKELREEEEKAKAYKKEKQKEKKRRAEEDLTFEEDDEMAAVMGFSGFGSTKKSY
UniProt Q96I24: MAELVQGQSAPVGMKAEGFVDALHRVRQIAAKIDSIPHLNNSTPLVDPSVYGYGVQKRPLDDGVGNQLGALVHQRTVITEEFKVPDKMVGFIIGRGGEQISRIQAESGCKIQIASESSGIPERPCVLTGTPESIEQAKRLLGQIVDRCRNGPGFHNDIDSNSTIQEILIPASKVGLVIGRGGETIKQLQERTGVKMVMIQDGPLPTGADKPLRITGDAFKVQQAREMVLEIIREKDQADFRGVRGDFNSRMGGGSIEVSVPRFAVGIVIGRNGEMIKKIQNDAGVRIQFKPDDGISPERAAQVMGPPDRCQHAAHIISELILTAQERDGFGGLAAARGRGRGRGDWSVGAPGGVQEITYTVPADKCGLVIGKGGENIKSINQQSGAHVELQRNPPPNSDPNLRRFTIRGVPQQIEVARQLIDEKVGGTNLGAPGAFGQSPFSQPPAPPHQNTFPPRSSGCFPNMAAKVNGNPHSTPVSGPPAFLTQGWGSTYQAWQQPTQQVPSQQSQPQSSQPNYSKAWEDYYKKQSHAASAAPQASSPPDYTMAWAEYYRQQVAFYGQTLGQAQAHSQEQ
UniProt Q96MX3: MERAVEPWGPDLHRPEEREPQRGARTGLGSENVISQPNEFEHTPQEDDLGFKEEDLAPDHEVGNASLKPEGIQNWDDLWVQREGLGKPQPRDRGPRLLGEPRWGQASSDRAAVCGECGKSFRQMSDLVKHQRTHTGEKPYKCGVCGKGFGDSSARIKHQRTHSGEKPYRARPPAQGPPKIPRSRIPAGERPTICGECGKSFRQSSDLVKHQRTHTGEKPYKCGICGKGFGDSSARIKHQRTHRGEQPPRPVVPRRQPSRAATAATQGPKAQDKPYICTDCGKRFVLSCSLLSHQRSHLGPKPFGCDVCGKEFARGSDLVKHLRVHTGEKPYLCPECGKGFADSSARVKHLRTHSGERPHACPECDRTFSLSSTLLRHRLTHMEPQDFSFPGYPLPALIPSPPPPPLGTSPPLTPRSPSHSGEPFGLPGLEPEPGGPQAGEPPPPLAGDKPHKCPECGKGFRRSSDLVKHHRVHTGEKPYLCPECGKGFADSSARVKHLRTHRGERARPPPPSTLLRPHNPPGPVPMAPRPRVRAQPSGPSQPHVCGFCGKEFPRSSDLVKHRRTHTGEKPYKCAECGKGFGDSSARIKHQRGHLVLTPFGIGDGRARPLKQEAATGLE
UniProt Q96RF0: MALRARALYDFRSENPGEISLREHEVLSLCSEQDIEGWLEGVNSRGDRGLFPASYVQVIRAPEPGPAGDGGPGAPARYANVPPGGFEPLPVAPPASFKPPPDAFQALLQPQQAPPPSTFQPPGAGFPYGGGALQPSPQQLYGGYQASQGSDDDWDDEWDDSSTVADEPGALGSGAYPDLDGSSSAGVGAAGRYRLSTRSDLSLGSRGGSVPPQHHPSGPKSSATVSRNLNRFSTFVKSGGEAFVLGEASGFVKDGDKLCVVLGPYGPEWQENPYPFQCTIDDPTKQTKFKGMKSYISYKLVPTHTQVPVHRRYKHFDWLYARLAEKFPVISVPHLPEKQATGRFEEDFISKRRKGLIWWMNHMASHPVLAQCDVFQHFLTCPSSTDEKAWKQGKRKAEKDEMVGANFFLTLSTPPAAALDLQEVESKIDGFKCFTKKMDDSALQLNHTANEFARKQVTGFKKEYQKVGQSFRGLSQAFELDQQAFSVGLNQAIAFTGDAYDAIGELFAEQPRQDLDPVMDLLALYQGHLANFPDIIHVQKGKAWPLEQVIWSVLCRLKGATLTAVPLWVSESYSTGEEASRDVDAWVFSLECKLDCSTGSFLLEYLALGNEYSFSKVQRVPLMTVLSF
UniProt Q96S65: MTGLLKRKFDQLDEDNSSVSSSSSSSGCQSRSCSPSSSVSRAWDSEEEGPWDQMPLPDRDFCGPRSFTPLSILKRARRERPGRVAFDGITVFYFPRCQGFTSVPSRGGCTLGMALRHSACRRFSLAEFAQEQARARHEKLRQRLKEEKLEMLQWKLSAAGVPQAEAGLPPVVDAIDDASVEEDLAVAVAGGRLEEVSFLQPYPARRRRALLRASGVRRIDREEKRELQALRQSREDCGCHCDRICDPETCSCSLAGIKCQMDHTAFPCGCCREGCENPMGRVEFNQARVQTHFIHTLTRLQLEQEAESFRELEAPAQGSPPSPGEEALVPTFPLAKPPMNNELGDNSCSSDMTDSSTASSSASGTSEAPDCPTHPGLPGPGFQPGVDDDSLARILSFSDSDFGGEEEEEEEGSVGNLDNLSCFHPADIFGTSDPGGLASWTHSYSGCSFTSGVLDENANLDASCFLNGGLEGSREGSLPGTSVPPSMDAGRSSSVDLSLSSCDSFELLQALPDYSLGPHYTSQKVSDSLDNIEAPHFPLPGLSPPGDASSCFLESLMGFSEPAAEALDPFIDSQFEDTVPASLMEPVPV
UniProt Q96MX6, whole entry: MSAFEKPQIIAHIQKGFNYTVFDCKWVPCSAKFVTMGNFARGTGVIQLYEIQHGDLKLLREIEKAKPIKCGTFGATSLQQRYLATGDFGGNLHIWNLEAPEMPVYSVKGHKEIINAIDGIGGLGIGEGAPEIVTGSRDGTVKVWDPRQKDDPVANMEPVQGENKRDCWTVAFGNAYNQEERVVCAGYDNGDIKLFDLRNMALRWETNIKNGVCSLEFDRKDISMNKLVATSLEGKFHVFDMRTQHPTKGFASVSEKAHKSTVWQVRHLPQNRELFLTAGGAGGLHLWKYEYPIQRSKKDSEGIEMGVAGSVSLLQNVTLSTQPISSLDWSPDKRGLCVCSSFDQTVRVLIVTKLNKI
UniProt Q96Q42: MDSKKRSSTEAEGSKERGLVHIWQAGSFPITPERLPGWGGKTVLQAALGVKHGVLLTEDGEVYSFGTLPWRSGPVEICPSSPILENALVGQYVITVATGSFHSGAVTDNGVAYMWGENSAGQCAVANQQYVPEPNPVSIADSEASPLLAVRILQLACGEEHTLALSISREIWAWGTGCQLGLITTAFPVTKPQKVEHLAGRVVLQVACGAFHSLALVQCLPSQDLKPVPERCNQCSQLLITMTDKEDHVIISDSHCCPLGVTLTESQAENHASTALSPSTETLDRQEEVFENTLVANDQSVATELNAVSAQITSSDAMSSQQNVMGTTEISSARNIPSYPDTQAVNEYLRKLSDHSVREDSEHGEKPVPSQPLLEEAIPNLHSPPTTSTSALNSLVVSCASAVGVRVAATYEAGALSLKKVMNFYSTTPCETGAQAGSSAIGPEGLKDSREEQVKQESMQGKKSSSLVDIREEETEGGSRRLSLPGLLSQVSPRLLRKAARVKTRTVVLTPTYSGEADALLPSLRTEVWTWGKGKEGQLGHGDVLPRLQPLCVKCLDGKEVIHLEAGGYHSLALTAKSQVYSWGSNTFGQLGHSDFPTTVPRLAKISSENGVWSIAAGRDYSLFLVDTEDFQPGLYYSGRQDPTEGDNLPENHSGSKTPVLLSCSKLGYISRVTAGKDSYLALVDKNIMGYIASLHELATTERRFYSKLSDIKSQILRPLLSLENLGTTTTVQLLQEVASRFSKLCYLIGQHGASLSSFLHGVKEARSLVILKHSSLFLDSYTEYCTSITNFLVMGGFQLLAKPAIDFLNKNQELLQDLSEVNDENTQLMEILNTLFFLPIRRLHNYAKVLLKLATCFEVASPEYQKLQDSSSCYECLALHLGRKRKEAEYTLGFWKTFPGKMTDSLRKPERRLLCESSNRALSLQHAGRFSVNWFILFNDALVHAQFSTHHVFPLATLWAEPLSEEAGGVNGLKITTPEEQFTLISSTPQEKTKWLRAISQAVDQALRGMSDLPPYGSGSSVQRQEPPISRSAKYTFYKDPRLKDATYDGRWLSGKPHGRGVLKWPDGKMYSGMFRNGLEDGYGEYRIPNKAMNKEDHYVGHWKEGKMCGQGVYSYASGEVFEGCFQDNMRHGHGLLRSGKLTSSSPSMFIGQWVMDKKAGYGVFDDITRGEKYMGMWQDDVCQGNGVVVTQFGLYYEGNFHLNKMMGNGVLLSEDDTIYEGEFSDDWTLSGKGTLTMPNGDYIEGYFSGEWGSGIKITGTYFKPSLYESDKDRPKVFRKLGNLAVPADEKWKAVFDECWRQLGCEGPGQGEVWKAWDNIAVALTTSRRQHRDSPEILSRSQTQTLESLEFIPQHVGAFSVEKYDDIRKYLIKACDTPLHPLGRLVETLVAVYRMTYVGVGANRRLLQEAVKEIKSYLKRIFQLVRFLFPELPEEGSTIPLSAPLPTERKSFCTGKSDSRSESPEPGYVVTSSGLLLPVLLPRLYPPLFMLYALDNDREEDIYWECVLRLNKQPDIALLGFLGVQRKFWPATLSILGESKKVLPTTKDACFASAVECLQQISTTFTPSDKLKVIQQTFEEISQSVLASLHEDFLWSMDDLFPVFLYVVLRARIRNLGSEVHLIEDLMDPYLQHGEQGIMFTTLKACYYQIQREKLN
UniProt Q96J92: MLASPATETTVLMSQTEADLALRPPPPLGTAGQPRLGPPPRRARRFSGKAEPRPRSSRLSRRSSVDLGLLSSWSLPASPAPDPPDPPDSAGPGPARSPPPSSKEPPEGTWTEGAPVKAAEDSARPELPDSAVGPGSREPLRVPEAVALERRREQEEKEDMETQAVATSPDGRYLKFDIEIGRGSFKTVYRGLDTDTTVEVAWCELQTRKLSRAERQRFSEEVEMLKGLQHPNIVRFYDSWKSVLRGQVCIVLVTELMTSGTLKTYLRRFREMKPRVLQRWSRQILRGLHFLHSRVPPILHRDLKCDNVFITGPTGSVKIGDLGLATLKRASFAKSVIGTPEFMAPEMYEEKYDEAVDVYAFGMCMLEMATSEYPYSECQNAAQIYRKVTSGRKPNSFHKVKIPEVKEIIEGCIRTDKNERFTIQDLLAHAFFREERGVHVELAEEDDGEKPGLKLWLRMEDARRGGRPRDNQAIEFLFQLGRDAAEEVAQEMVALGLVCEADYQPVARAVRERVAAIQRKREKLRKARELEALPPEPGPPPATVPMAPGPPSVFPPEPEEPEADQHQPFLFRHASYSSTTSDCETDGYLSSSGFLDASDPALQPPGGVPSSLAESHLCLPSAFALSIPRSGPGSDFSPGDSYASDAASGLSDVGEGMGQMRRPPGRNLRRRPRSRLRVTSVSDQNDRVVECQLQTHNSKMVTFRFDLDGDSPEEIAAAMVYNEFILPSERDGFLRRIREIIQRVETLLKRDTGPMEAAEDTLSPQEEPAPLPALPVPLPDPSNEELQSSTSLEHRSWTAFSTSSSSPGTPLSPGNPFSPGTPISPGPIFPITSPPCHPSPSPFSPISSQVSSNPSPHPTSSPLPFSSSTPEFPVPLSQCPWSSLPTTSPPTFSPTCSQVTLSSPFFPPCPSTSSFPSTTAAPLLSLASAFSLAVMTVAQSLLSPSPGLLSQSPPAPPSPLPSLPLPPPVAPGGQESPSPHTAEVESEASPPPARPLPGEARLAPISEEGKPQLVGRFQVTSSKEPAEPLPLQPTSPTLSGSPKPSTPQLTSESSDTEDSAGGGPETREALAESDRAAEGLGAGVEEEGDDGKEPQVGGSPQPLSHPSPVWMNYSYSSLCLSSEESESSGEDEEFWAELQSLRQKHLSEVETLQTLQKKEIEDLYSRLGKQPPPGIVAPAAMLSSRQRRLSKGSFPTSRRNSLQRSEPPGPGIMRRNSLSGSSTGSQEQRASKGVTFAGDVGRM

These targets were tested with CN[C@@H]1C[C@H]2O[C@@](C)([C@@H]1OC)n1c3ccccc3c3c4c(c5c6ccccc6n2c5c31)C(=O)NC4 [staurosporine] (assay: log2 fold change of tryptic peptide abundance, ligand vs vehicle (limited proteolysis) (log2 ratio); higher = more trypsin-susceptible (destabilized)). Settings: ligand concentration: 20 uM; sample: K562 cleared lysate; digestion: 4 min, 22 C (HT-PELSA RT4min, Orbitrap Astral).

Target | log2 fold change
UniProt Q96GS4 (peptide sequence: RTLEVLEALCK, peptide start residue: 347) | -0.638
ZNF512 (peptide sequence: VLQDLVPDDRK, peptide start residue: 367) (UniProt Q96ME7) | -0.239
PBK (peptide sequence: VIELFSVCTNEDPK, peptide start residue: 293) (UniProt Q96KB5) | -0.625
LENG8 (peptide sequence: ADPCVAHALALR, peptide start residue: 692) (UniProt Q96PV6) | -0.26
SENP5 (peptide sequence: FCVENIR, peptide start residue: 671) (UniProt Q96HI0) | 0.351
PGAM5 (peptide sequence: NVESGEEELASK, peptide start residue: 77) (UniProt Q96HS1) | 0.0506
TTC14 (peptide sequence: KADLLFALSWK, peptide start residue: 71) (UniProt Q96N46) | -0.565
UniProt Q96Q05 (peptide sequence: SPFIYSPIIAHNR, peptide start residue: 569) | -0.075
ZNF845 (peptide sequence: NSHEAPMTEIK, peptide start residue: 107) (UniProt Q96IR2) | 0.217
UniProt Q96LW1 (peptide sequence: NLVSLGLSFTKPK, peptide start residue: 49) | -0.144
UniProt Q96NC0 (peptide sequence: DYDFEER, peptide start residue: 139) | -0.126
FUBP3 (peptide sequence: SSGCFPNMAAK, peptide start residue: 457) (UniProt Q96I24) | -0.153
GMPPA (peptide sequence: IPAEVLILNSIVLPHK, peptide start residue: 393) (UniProt Q96IJ6) | 0.156
MARK4 (peptide sequence: HSDFCGPSPAPLHPK, peptide start residue: 422) (UniProt Q96L34) | 0.509
RBM41 (peptide sequence: DLVSLFAR, peptide start residue: 324) (UniProt Q96IZ5) | 0.384
MED30 (peptide sequence: QLSVLFR, peptide start residue: 84) (UniProt Q96HR3) | 0.213
ZNF48 (peptide sequence: VHTGEKPYLCPECGK, peptide start residue: 324) (UniProt Q96MX3) | 0.429
SNX18 (peptide sequence: SENPGEISLR, peptide start residue: 13) (UniProt Q96RF0) | -0.16
UniProt Q96S65 (peptide sequence: SFTPLSILKR, peptide start residue: 66) | 0.704
SGSM3 (peptide sequence: QTELVADLR, peptide start residue: 428) (UniProt Q96HU1) | 0.266
NSUN5 (peptide sequence: QGFSYQGR, peptide start residue: 157) (UniProt Q96P11) | -0.649
UniProt Q96NB1 (peptide sequence: STNIEDLHVSQAVNR, peptide start residue: 160) | -0.126
WDR92 (peptide sequence: ELFLTAGGAGGLHLWKYEYPIQR, peptide start residue: 273) (UniProt Q96MX6) | -0.444
CAPNS2 (peptide sequence: LGFEEFK, peptide start residue: 159) (UniProt Q96L46) | 0.456
WDR24 (peptide sequence: DMAPGLGSETRLDR, peptide start residue: 489) (UniProt Q96S15) | 0.408
ALS2 (peptide sequence: DSPEILSR, peptide start residue: 1334) (UniProt Q96Q42) | -0.185
UniProt Q96MP5 (peptide sequence: VASPGGDTTGK, peptide start residue: 107) | -0.36
UniProt Q96RT1 (peptide sequence: LKDEETNEDSGR, peptide start residue: 505) | -0.489
WNK4 (peptide sequence: LGKQPPPGIVAPAAMLSSR, peptide start residue: 1167) (UniProt Q96J92) | 0.436

Nothing new here: entries from further up.
Target | log2 fold change
GMPPA (peptide sequence: IPAEVLILNSIVLPHK, peptide start residue: 393) (UniProt Q96IJ6) | 0.156
MARK4 (peptide sequence: HSDFCGPSPAPLHPK, peptide start residue: 422) (UniProt Q96L34) | 0.509
RBM41 (peptide sequence: DLVSLFAR, peptide start residue: 324) (UniProt Q96IZ5) | 0.384
MED30 (peptide sequence: QLSVLFR, peptide start residue: 84) (UniProt Q96HR3) | 0.213
ZNF48 (peptide sequence: VHTGEKPYLCPECGK, peptide start residue: 324) (UniProt Q96MX3) | 0.429
SNX18 (peptide sequence: SENPGEISLR, peptide start residue: 13) (UniProt Q96RF0) | -0.16
UniProt Q96S65 (peptide sequence: SFTPLSILKR, peptide start residue: 66) | 0.704
SGSM3 (peptide sequence: QTELVADLR, peptide start residue: 428) (UniProt Q96HU1) | 0.266
